Measurements as given in PubChem BioAssay AID493014 (National Center for Advancing Translational Sciences (NCATS), 2011).
Some of the results follow. These are further read-outs of the screen, such as a control signal, another cell line or another target. No call is given for them. The list favours compounds with an active or inconclusive main result. The note in brackets gives the kind of curve behind each potency; many fits are weak.

Assay: qHTS Assay to Find Inhibitors of Chronic Active B-Cell Receptor Signaling
Conditions: ABC-DLBCL IkBa-CBG/CBR reporter, luminescence ratio (green luciferase fused to IkBa over red control in TMD8 lymphoma cells), 4 h
Method in brief: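 Compounds up to 46 uM were incubated four hours with TMD8 cells whose green CBG68 luciferase is fused to IkappaBalpha; red CBR luminescence normalised the signal, and concentration-effect curves were fitted to fusion, red and ratio data.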

[1] = measured here: CBR red luminescence, cell number

## C=CCn1c(=NC(=O)c2sc3ccccc3c2Cl)sc2cc(S(N)(=O)=O)ccc21
[1]
  AC50: 2.31 µM [rising, partial curve, poor fit]

## CCOC(=O)c1[nH]c(C)c(C(=O)Nc2ccccc2F)c1C
[1]
  AC50: 14.6 µM [rising, partial curve]

## CCCCOc1ccccc1C1C(C(=O)OC)=CN(CC)C=C1C(=O)OC
[1]
  AC50: 22.4 µM [falling, single point]

## CN1C(=O)C(=O)N(CC(=O)N2CCc3ccccc32)C1=O
[1]
  AC50: 29.1 µM [rising, single point]

## CCCCNC(=O)c1onc(CSc2ccc(F)c(F)c2)c1C(=O)O
[1]
  AC50: 2.82 µM [rising, partial curve, poor fit]

## CCOP(=O)(OCC)/C(=N/OC(=O)c1ccc(Cl)cc1Cl)C(N)=O
[1]
  AC50: 35.5 µM [rising, single point]

## NC(=O)c1nsc(C(=O)N(CC(=O)NC2CCCCC2)c2cccc(F)c2)c1N
[1]
  AC50: 0.112 µM [falling, full curve, poor fit]

## CCOC(=O)c1cccc(NC(=O)CCc2c(C)nc3ncnn3c2C)c1
[1]
  AC50: 28.2 µM [falling, partial curve, poor fit]

## COc1ccc(/C=N/n2c(N)nc(-c3ccccc3)c2-c2ccccc2)cc1
[1]
  AC50: 5.62 µM [falling, partial curve]

## O=C(Nc1ccc(Oc2ccccc2)cc1)C1CC1
[1]
  AC50: 5.62 µM [rising, partial curve, poor fit]

## Oc1ccc(/C=N/NC(=S)Nc2cccnc2)c(O)c1
[1]
  AC50: 1.16 µM [falling, full curve]

## CCOc1ccccc1NC(=O)C1CCCN(S(=O)(=O)c2c(C)[nH]c(=O)[nH]c2=O)C1 (stereo unspecified)
[1]
  AC50: 0.103 µM [falling, full curve, poor fit]

## COc1ccc(CCNC(=O)c2cc(C)oc2C)cc1
[1]
  AC50: 14.1 µM [falling, partial curve, poor fit]

## CC(=O)N1N=C(c2ccc3ccccc3c2)OC1(C)C
[1]
  AC50: 6.51 µM [rising, full curve, poor fit]

## O=[N+]([O-])c1cccc(-c2noc(COc3ccccc3)n2)c1
[1]
  AC50: 1.12 µM [rising, full curve]

## Cc1cccnc1NC(=O)c1ccc2c(c1)OCO2
[1]
  AC50: 23.1 µM [falling, single point]

## O=C(COc1ccc(/C=C2/NC(=O)NC2=O)cc1)Nc1ccc(F)cc1
[1]
  AC50: 7.94 µM [rising, partial curve]

## O=C(NCCN1CCOCC1)c1ccc2ccccc2n1
[1]
  AC50: 11.6 µM [rising, partial curve, poor fit]

## N#Cc1c(NC(=O)C2CC(Cl)=CCC2C(=O)O)sc2c1CCCCC2 (stereo unspecified)
[1]
  AC50: 7.08 µM [falling, partial curve, poor fit]

## COc1cc(OC)c2ccc(=O)oc2c1C(CC(=O)N1CCCC1)c1ccc(N(C)C)cc1 (stereo unspecified)
[1]
  AC50: 2.51 µM [rising, full curve, poor fit]

## O=c1cc(-c2ccccc2)n2c(SCc3ccccc3)nnc2[nH]1
[1]
  AC50: 0.708 µM [falling, full curve, poor fit]

## CCC(CC)NC(=O)c1cccc(Br)c1
[1]
  AC50: 11.2 µM [rising, single point]

## Cc1ccc(NC(=O)CSc2nc3ccccc3c(=O)n2CCCN2CCCCC2)cc1C
[1]
  AC50: 11.2 µM [falling, partial curve, poor fit]

## Clc1ccc(/C(Cc2nc3ccccc3[nH]2)=N\Nc2ccccc2)cc1
[1]
  AC50: 15.8 µM [falling, single point]

## COc1cc(Cl)c(C)cc1NC(=O)CSc1nnc(-c2ccco2)n1CC(C)C
[1]
  AC50: 22.4 µM [falling, single point]

## C=CCn1c(Oc2ccccc2)nc2c1c(=O)n(C)c(=O)n2C
[1]
  AC50: 12.6 µM [falling, partial curve]

## Cc1cc(C)nc(N/N=C/c2sccc2C)n1
[1]
  AC50: 12.6 µM [falling, partial curve]

## O=C(COc1ccccc1F)NNC(=O)c1ccc(N2CCCCC2)c([N+](=O)[O-])c1
[1]
  AC50: 14.6 µM [rising, partial curve, poor fit]

## CCOC(=S)SCC(=O)N1CCc2cc(OC)ccc2C1C1C(=O)CCCC1=O (stereo unspecified)
[1]
  AC50: 2.06 µM [falling, full curve, poor fit]
Measured here: IkBa-CBG green luminescence
  AC50: 20.6 µM [falling, partial curve, poor fit]

## CCOC(=O)N1CCN(C(=O)c2ccc3c(=O)n(CCC4=CCCCC4)c(=O)[nH]c3c2)CC1
[1]
  AC50: 10 µM [rising, partial curve, poor fit]

## O=C(NC(=S)Nc1cccc2cc(O)ccc12)c1ccccc1Br
[1]
  AC50: 0.398 µM [falling, full curve]

## CSc1nc2ccc(NC(=O)c3nn(C(C)C)c(=O)c4ccccc34)cc2s1
[1]
  AC50: 7.31 µM [rising, partial curve, poor fit]

## COc1ccccc1N(C)S(=O)(=O)c1ccc(C(=O)Nc2nccs2)cc1
[1]
  AC50: 8.2 µM [falling, partial curve]

## Cc1ccc(-n2cc(C(=O)c3ccccc3O)cn2)cc1
[1]
  AC50: 7.94 µM [falling, partial curve]

## Cc1ccccc1N1C(=O)C2ON(c3ccccc3)C(c3ccco3)C2C1=O (stereo unspecified)
[1]
  AC50: 11.2 µM [falling, partial curve, poor fit]

## COc1cccc(OC)c1C(=O)NC(=S)Nc1ccc2c(c1)C(=O)N(C)C2=O
[1]
  AC50: 29.1 µM [rising, single point]

## COc1ccc(Cl)cc1NC(=O)CN(C)C(=O)CCCc1c[nH]c2ccccc12
[1]
  AC50: 35.5 µM [falling, single point]

## CC(=O)Nc1cc(NC(C)=O)cc(C(=O)OCC(=O)N(c2ccccc2)C2CCS(=O)(=O)C2)c1 (stereo unspecified)
[1]
  AC50: 1.03 µM [falling, full curve, poor fit]

## CNc1nc(N2CCc3ccccc32)ncc1F
[1]
  AC50: 12.6 µM [rising, partial curve, poor fit]

## C=CCc1ccccc1OCC(=O)NNC(=S)NCc1ccccc1
[1]
  AC50: 2 µM [rising, full curve, poor fit]
